PubChem BioAssay AID1508597, Cure First – 2020
This is a random part of the about 2,100 reagents, under one of the conditions tested. 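Calls flag viability under 80% in either arm, not effects specific to rucaparib; the reference for percent is not stated.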 Unmarked entries are inactive. A reagent listed more than once was tested more than once; the source does not tell the runs apart. The record does not give: the 100% reference.

- Purpose: 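Genes whose silencing sensitises or protects ovarian cancer cells against rucaparib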 (primary screen)
- Cell system: human ovarian carcinoma lines grown from tumours: OCI-P5x (papillary serous) and OCI-C5x (clear cell)
- Knock-down reagent: siRNA pool against human genes, 1.25 pmol siRNA per well
- Time to read-out: 72 h or 96 h, depending on the cell culture
- Treatment: rucaparib 20 µM (about IC30) or vehicle, present until read-out
- Rucaparib or vehicle: Vehicle
- Cell line: OCI-P5x (serous)
- Detection: 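ATP luminescence measured at 72 or 96 h according to the culture, then normalised and expressed as percent viability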
- Direction: viability, normalised: higher = more viable cells remaining
- Hit rule: 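Active when normalised viability falls below 80 percent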
- Meaning of the calls: active = viability under 80%; inactive = viability 80% or more

gene knocked down	technical replicate	viability, normalised (%)
ACTB	1	41.9 (active)
ACTB	2	64.5 (active)
ACTB	3	68.5 (active)
SMAD2	1	52.3 (active)
SMAD2	2	55.8 (active)
SMAD2	3	60 (active)
TEX14	1	87.7
TEX14	2	68.1 (active)
TEX14	3	76 (active)
DSTYK	1	61.4 (active)
DSTYK	2	58.9 (active)
DSTYK	3	67.8 (active)
PDE3B	1	73.8 (active)
PDE3B	2	45.9 (active)
PDE3B	3	46.7 (active)
RP2	1	52.9 (active)
RP2	2	57.6 (active)
RP2	3	48.7 (active)
ITPKC	1	67.1 (active)
ITPKC	2	63.9 (active)
ITPKC	3	72.7 (active)
HUS1	1	81.4
HUS1	2	103
HUS1	3	91.7
PIK3CA	1	94.2
PIK3CA	1	77.5 (active)
PIK3CA	2	85.6
PIK3CA	2	81.5
PIK3CA	3	86.5
PIK3CA	3	85.8
DTYMK	1	72.8 (active)
DTYMK	2	74.8 (active)
DTYMK	3	93.5
TDRD9	1	82.6
TDRD9	2	62.4 (active)
TDRD9	3	78.4 (active)
TDP1	1	75.8 (active)
TDP1	1	114
TDP1	2	129
TDP1	2	64.3 (active)
TDP1	3	76.5 (active)
TDP1	3	124
ALG8	1	70.5 (active)
ALG8	2	66 (active)
ALG8	3	70.1 (active)
DLG4	1	57.2 (active)
DLG4	1	85.1
DLG4	2	59.7 (active)
DLG4	2	76.1 (active)
DLG4	3	71.6 (active)
DLG4	3	62.4 (active)
MED31	1	77.5 (active)
MED31	2	84.4
MED31	3	76.8 (active)
CUBN	1	57.6 (active)
CUBN	2	78 (active)
CUBN	3	73.8 (active)
HHEX	1	70.9 (active)
HHEX	2	75 (active)
HHEX	3	80.4
SS18L1	1	59.6 (active)
SS18L1	2	51 (active)
SS18L1	3	64.1 (active)
RUVBL1	1	58.7 (active)
RUVBL1	2	63.3 (active)
RUVBL1	3	62.3 (active)
MAP4K4	1	104
MAP4K4	2	100
MAP4K4	3	101
P2RY2	1	57.8 (active)
P2RY2	2	69.8 (active)
P2RY2	3	62.6 (active)
PARP2	1	57.8 (active)
PARP2	1	62.5 (active)
PARP2	2	83.4
PARP2	2	46 (active)
PARP2	3	75.5 (active)
PARP2	3	73.6 (active)

11 of these entries in another layout:
{"gene knocked down": "TDRD9", "technical replicate": "1", "viability, normalised (%)": 82.6}
{"gene knocked down": "TDRD9", "technical replicate": "2", "viability, normalised (%)": "62.4 (active)"}
{"gene knocked down": "TDRD9", "technical replicate": "3", "viability, normalised (%)": "78.4 (active)"}
{"gene knocked down": "TDP1", "technical replicate": "1", "viability, normalised (%)": "75.8 (active)"}
{"gene knocked down": "TDP1", "technical replicate": "1", "viability, normalised (%)": 114}
{"gene knocked down": "TDP1", "technical replicate": "2", "viability, normalised (%)": 129}
{"gene knocked down": "TDP1", "technical replicate": "2", "viability, normalised (%)": "64.3 (active)"}
{"gene knocked down": "TDP1", "technical replicate": "3", "viability, normalised (%)": "76.5 (active)"}
{"gene knocked down": "TDP1", "technical replicate": "3", "viability, normalised (%)": 124}
{"gene knocked down": "ALG8", "technical replicate": "1", "viability, normalised (%)": "70.5 (active)"}
{"gene knocked down": "ALG8", "technical replicate": "2", "viability, normalised (%)": "66 (active)"}
